# Results reported in article PMC10782416.
# Chains of the proteins cited; added tags and fusions are not shown. Residues count along the entry.
# UniProt P01127, 82-190: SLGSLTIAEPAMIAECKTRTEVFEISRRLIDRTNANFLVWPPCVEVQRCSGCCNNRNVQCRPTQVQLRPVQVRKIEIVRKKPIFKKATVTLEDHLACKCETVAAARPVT
# UniProt P19338, whole entry: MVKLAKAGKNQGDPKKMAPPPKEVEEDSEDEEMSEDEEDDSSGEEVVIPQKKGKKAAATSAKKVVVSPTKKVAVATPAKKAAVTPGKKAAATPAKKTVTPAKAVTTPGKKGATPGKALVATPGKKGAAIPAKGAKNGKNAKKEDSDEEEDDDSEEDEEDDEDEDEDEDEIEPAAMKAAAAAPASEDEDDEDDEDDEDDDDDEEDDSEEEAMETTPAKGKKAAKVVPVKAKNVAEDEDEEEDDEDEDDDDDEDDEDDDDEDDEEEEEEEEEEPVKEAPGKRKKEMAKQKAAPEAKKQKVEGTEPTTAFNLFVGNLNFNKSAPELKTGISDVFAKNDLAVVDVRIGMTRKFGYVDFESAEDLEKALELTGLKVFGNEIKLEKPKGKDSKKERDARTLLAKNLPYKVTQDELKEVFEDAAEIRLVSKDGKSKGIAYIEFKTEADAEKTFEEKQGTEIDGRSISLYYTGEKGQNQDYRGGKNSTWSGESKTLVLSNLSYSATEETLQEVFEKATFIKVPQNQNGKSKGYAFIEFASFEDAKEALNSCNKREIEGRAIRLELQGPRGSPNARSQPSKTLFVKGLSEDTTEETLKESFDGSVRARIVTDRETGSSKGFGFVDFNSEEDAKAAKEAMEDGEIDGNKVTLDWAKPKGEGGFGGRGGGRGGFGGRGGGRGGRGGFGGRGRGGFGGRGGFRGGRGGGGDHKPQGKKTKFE
# Tests used:
# [1] = target: human serum albumin (HSA) (Homo sapiens) (UniProt P02768); assay: FCS; conditions: HSA 10 uM to 2 mM, weak residual binding not excluded; PBS pH 7.4; aptamer folded in PBS with 5 mM MgCl2 (1 mM for AS1411 and 36t), 90 C 2 min then cooled; final buffer not detailed; overnight at room temperature; native protein; label: 5'-atto633; folded or branched DNA
# PDGF-BB (Homo sapiens) [2] = target: PDGF-BB (Homo sapiens) (UniProt P01127); assay: BLI; conditions: PBS pH 7.4; aptamer folded in PBS with 5 mM MgCl2 (1 mM for AS1411 and 36t), 90 C 2 min then cooled; final buffer not detailed; overnight at room temperature; commercial protein; label: 5'-atto633; folded or branched DNA
# PDGF-BB (Homo sapiens) [3] = target: PDGF-BB (Homo sapiens) (UniProt P01127); assay: filter binding; conditions: PBS pH 7.4; aptamer folded in PBS with 5 mM MgCl2 (1 mM for AS1411 and 36t), 90 C 2 min then cooled; final buffer not detailed; overnight at room temperature; commercial protein; label: 5'-atto633; folded or branched DNA
# [4] = target: nucleolin (NCL) (Homo sapiens) (UniProt P19338); assay: SPR; conditions: PBS pH 7.4; aptamer folded in PBS with 5 mM MgCl2 (1 mM for AS1411 and 36t), 90 C 2 min then cooled; final buffer not detailed; overnight at room temperature; commercial protein; label: 5'-atto633; folded or branched DNA
sequence,measurement,setting,value
ATCAGGTGGATGGTAGCTCGGTCGGGGTGGGTGGGTTGGCAAGTCTGATTA [CLN3],Kd,[1],> 300000 nM
CACAGGCTACGGCACGTAGAGCATCACCATGATCCTGTG [36t],Kd,PDGF-BB (Homo sapiens) [2],1 nM
same,Kd,PDGF-BB (Homo sapiens) [3],0.1 nM
TTTGGTGGTGGTGGTTGTGGTGGTGGTGG [AS1411],Kd,[4],34.2 nM

# For some of these results: For at least one entry, the source does not settle the construct or the ends of the probe.
